The results in this text go back to patent publication US20060223096A1 (GLYCART BIOTECHNOLOGY, published 2006).

Amino acid sequences for entries named in this document (tags omitted). Residues count along the entry.
UniProt Q6UVK1, residues 30-2322: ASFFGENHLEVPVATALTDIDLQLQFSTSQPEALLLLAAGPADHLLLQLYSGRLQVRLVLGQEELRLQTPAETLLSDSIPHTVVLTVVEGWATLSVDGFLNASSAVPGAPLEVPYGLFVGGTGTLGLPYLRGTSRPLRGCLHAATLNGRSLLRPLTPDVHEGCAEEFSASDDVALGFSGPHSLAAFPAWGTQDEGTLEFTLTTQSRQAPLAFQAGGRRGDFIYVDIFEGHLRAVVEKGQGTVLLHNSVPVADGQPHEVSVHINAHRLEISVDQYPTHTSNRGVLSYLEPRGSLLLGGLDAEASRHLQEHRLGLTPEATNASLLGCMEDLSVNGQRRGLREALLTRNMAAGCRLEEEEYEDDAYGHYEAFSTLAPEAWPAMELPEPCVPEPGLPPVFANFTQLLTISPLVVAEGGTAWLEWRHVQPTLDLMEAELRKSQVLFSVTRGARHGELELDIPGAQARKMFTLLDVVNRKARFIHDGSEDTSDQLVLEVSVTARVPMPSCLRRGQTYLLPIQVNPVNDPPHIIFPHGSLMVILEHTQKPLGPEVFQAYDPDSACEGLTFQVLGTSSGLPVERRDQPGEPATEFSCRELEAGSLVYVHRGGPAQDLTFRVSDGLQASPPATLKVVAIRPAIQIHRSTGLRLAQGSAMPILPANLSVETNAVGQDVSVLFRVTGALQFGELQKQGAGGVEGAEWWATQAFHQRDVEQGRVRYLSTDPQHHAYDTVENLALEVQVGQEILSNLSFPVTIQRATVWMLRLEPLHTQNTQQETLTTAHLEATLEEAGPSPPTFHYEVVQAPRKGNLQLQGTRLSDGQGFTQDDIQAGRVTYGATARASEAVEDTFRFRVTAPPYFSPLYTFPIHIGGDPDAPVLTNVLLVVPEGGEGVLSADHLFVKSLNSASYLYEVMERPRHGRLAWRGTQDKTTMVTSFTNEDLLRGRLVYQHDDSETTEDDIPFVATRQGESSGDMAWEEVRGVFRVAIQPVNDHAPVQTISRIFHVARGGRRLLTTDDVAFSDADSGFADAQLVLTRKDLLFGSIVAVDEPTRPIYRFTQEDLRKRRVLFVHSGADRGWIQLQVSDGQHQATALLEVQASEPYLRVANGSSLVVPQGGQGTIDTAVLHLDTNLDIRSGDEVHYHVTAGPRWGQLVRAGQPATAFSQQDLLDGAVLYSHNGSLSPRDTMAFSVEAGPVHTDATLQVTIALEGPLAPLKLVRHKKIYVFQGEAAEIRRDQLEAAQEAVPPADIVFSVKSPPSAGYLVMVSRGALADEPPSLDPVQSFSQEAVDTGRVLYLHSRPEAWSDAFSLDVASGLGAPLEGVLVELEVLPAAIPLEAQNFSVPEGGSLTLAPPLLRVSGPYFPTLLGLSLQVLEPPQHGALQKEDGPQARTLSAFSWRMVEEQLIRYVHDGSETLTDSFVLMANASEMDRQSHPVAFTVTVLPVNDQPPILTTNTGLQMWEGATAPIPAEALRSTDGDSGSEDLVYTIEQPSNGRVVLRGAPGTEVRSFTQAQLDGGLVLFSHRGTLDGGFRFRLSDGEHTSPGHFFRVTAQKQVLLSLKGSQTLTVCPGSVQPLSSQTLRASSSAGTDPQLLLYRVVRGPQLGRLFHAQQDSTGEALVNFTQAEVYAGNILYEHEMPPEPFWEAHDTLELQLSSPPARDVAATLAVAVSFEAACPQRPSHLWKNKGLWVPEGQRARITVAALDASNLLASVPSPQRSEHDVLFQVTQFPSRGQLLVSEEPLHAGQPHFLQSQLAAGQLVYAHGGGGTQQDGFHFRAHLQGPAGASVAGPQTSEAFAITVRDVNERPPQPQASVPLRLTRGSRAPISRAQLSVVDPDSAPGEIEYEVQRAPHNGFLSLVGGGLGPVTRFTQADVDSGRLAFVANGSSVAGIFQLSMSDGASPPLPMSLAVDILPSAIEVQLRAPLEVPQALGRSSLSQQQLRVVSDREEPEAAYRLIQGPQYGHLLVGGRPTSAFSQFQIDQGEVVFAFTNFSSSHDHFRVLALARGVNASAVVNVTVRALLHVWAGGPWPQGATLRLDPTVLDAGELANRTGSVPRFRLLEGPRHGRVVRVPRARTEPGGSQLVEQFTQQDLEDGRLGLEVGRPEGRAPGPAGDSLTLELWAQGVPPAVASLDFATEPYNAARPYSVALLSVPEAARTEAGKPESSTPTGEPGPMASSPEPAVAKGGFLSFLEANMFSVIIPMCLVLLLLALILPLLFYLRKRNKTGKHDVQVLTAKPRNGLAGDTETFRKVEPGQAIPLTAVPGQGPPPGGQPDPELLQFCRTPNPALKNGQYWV

These are yes or no findings as the source states them, for the method shown. Some results given as binding are weak or reduced against the parent protein; the word gives no strength.

The target in the assay is human melanoma chondroitin sulfate proteoglycan (MCSP) (human) (UniProt Q6UVK1). Kind of assay: flow cytometry on A375 human melanoma cells.

B1: M-KV11 light chain combined with the M-HLG heavy chain (antibody, V domains shown)
VH: EVQLVESGGGLVQPGGSLRLSCAASGFTFSNYWMNWVRQAPGKGLEWVAEIRLKSNNFGRYYAASVKGRFTISRDDSKNTLYLQMNSLKTEDTAVYYCTTYGNYVGHYFDHWGQGTTVTVSS
VL: DIQLTQSPSFLSASVGDRVTITCRASQNVDTNVAWYQQKPGQAPRPLIYSASYRYTGVPSRFSGSGSGTEFTLTISSLQPEDFATYYCQQYNSYPLTFGGGTKVEIKR
Consider B1, for which the binding entry is listed as “binds”.
